Data from the supplement of paper PMC10849652.
The list shows a part of the results.

Protein sequences, listed by entry. Tags and fused reporters are not part of them. Lines headed by an entry give the natural chain unless they say otherwise; changes in a name come on top.
UniProt Q8IYI6: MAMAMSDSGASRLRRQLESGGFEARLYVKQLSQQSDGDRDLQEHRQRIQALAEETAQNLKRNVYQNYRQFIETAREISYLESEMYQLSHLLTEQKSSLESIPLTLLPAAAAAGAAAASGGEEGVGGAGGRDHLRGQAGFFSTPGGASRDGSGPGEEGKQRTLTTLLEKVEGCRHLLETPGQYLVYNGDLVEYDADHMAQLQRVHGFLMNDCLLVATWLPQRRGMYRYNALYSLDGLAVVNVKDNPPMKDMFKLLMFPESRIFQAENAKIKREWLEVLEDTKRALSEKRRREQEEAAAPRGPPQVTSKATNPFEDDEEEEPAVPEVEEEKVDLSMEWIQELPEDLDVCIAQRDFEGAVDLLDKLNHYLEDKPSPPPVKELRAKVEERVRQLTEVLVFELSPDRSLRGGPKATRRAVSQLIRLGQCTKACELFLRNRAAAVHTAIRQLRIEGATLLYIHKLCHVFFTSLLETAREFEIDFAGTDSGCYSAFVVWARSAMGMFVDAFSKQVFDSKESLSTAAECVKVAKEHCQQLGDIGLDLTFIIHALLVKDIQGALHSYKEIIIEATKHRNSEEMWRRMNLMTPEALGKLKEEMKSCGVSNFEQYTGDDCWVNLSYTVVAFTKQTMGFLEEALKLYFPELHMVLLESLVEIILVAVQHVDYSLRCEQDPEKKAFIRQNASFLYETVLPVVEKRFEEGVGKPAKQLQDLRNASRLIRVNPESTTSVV
UniProt Q9NUQ9: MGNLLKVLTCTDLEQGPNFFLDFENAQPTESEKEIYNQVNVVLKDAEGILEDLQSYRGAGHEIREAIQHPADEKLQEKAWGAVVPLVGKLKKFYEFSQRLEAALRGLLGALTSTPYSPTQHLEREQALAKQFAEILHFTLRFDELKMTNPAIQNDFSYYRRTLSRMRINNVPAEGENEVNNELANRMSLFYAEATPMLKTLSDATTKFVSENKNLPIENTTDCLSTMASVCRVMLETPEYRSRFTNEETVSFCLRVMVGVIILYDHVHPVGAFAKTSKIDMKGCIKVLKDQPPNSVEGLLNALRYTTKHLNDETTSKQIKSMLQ
UniProt Q8TAG9: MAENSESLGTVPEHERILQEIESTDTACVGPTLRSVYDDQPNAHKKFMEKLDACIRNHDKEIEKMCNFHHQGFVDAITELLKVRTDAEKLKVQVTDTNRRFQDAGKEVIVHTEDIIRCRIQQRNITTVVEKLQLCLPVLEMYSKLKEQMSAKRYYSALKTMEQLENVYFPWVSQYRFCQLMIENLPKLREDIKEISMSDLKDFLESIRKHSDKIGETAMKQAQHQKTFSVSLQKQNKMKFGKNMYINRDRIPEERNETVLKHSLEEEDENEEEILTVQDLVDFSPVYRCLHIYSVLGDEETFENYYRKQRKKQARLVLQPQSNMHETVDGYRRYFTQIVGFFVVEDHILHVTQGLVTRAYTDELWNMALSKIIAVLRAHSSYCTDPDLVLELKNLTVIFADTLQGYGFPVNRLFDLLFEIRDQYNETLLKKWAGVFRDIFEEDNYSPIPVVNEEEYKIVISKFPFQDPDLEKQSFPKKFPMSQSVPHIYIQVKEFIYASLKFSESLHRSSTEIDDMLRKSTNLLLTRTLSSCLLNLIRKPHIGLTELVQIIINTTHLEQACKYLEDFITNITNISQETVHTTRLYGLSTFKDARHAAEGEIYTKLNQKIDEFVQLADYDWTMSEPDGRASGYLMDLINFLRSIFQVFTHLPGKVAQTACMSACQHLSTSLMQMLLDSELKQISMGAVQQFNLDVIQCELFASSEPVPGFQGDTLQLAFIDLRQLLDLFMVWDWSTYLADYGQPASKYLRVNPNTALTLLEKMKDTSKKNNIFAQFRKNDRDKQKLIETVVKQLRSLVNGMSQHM
UniProt Q9Y421: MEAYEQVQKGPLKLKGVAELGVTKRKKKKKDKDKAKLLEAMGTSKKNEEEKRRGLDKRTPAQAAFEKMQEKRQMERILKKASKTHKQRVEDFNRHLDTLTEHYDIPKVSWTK
UniProt Q9Y2C4: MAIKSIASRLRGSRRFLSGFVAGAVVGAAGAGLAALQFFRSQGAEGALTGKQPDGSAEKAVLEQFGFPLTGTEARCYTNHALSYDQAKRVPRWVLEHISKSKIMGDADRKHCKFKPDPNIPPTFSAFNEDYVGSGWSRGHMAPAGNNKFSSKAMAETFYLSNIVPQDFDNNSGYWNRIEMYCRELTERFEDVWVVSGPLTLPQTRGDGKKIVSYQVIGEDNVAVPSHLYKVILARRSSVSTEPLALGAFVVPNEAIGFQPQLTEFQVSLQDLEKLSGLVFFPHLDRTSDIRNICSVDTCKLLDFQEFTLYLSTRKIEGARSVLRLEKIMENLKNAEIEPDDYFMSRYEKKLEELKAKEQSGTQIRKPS
UniProt Q96ND0: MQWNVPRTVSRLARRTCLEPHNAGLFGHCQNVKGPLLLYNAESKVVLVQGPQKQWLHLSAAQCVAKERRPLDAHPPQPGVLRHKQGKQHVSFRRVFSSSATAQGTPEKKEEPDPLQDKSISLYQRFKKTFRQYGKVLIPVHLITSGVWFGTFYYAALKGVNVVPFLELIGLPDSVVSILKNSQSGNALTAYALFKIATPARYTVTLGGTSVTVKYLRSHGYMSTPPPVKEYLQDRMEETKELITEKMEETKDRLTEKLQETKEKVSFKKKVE
UniProt Q8WUF8: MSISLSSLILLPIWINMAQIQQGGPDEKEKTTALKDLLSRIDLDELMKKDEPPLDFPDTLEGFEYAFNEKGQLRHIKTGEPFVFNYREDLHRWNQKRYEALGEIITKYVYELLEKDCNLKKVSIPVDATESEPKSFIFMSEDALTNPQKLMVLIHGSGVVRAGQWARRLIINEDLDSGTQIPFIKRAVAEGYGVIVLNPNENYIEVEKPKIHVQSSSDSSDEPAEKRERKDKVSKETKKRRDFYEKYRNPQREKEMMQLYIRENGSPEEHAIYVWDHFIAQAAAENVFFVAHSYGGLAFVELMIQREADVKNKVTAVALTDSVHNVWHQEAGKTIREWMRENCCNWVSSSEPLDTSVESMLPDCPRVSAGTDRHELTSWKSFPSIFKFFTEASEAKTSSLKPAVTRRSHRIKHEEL
UniProt Q9HBU6: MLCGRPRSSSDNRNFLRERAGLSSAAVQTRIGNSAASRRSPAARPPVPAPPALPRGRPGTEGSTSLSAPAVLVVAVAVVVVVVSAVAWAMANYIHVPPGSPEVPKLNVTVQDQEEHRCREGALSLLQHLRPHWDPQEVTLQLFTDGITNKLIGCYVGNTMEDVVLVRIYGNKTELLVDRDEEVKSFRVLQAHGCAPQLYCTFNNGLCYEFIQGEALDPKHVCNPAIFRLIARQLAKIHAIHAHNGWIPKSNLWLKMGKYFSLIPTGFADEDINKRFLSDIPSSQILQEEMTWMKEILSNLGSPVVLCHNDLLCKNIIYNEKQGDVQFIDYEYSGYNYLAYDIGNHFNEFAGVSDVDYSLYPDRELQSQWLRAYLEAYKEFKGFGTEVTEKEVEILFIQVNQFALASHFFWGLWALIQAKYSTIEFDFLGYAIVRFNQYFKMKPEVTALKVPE
UniProt Q9BSJ8: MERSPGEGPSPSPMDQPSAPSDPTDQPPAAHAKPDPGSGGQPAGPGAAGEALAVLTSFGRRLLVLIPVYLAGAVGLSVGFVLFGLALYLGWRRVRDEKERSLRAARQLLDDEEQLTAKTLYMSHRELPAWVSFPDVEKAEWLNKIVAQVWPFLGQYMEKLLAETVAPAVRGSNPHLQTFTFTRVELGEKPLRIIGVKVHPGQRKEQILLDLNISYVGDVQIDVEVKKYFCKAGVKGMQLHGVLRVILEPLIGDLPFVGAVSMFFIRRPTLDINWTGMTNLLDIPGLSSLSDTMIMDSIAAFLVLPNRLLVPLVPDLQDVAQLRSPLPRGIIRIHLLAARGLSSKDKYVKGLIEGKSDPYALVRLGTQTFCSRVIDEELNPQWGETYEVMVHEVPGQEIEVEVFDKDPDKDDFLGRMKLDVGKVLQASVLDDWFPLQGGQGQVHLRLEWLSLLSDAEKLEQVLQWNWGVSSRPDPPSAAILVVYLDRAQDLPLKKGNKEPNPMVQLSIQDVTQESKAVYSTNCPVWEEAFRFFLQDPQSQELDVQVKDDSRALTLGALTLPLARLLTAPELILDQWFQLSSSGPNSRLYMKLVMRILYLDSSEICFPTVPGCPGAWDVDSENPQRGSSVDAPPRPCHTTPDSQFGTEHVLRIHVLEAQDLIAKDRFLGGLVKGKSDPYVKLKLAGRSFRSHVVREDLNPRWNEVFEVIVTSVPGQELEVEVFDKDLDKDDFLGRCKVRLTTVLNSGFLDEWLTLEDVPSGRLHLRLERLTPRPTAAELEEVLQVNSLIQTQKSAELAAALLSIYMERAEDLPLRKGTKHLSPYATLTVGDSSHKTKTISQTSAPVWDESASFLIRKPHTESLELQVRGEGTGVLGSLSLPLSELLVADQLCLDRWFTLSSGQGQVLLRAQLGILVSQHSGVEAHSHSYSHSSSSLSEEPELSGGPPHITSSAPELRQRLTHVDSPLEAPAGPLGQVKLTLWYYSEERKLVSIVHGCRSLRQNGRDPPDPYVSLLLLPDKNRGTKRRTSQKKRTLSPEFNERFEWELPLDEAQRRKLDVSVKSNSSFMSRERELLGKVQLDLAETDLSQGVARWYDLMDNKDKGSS
UniProt Q13158: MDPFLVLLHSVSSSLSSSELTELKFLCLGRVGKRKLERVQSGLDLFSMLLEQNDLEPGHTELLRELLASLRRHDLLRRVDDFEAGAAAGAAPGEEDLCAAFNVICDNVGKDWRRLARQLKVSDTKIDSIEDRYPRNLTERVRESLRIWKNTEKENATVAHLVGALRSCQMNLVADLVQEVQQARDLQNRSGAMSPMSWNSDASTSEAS
UniProt Q9BPY3: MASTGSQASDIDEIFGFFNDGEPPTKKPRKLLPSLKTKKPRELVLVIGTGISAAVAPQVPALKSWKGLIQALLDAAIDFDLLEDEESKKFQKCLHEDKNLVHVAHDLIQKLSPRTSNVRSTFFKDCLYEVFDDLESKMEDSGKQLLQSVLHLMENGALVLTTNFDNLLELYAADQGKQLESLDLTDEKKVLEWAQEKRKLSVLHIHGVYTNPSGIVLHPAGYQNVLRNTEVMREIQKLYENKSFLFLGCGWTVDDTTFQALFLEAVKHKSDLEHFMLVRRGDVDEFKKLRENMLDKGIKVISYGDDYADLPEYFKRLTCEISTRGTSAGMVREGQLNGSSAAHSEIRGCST
UniProt Q96CS3: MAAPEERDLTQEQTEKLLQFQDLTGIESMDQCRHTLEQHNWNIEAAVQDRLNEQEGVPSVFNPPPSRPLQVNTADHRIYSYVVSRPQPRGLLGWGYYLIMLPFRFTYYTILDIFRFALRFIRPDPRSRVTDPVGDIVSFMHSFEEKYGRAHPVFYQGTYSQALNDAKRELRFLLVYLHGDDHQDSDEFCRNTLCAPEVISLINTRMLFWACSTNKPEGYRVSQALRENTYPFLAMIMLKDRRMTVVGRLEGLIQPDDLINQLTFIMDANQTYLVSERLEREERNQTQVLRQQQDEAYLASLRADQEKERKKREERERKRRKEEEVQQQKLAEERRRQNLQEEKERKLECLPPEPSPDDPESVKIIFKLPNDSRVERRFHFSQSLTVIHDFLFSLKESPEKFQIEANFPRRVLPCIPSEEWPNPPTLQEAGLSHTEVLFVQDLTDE
UniProt P98173: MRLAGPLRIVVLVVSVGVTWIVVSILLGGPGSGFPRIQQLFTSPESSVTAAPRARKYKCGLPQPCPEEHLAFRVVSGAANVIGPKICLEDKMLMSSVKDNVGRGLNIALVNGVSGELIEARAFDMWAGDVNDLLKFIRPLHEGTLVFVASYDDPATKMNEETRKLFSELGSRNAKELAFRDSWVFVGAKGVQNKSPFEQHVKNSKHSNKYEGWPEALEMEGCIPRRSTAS
UniProt Q8IXS8: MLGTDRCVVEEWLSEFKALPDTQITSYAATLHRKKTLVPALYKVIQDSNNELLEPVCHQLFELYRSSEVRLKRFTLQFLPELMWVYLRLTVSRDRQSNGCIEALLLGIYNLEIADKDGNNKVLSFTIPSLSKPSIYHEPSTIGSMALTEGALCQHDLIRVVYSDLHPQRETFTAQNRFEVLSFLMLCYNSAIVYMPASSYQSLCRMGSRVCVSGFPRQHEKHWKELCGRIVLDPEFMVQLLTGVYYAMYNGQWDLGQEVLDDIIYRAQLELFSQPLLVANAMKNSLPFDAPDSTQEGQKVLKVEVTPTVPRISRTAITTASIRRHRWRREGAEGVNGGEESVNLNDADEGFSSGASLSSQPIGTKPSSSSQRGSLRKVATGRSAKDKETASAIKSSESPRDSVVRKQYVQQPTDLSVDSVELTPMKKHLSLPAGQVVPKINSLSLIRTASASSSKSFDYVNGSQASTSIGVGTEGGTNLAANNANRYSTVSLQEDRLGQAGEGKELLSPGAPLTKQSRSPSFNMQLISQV

The targets below were run with CC1=C2C(=CC=C1)N=C(N(C2=O)C3=CC=CC=C3C)CN4C=NC5=C(N=CN=C54)N (assay: log2 fold change, soluble protein after heating vs DMSO (PISA); higher = thermal stabilisation; K562 lysate, 10 uM; active = over 0.2 and 3.5 SD of the protein, either way, in both replicates (recomputed)).
In short: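 Values give the log-two fold change in thermal stability against solvent controls, from duplicates. Crude K562 extract at 1 mg/mL protein, made by dounce homogenisation in PBS pH 7.4 with 1 mM MgCl2, was treated with 10 μM compound for 30 min. After 3 min heating across 48°C-58°C, aliquots were pooled, adjusted to 0.5% NP-40 at 4°C and centrifuged at 21,000xg for 90 min. The supernatant was measured by TMTpro 16plex LC-MS/MS with channel sums equalised.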

| Target | log2 fold change |
| --- | --- |
| FAM76A isoform 3 (UniProt Q8TAV0) | inactive: -0.026 |
| EXOSC2 (UniProt Q13868) | inactive: 0.004 |
| EXOC8 (UniProt Q8IYI6) | inactive: 0.026 |
| EXOC2 (UniProt Q96KP1) | inactive: -0.013 |
| FAM49B (UniProt Q9NUQ9) | inactive: -0.016 |
| ERICH1 (UniProt Q86X53) | inactive: 0.008 |
| EXOC6 (UniProt Q8TAG9) | inactive: -0.006 |
| FAM114A1 (UniProt Q8IWE2) | inactive: 0.085 |
| ESS2 (UniProt Q96DF8) | inactive: 0.016 |
| FAM49B, A0A1W2PRQ0 | inactive: -0.014 |
| FAM32A (UniProt Q9Y421) | inactive: -0.076 |
| EZH2 isoform 2 (UniProt Q15910) | inactive: -0.001 |
| EXOG (UniProt Q9Y2C4) | inactive: -0.039 |
| EXOC4 (UniProt Q96A65) | inactive: 0.016 |
| FAM210A (UniProt Q96ND0) | inactive: -0.019 |
| FAM172A (UniProt Q8WUF8) | inactive: 0.004 |
| EXOSC8 (UniProt Q96B26) | inactive: -0.051 |
| ESF1 (UniProt Q9H501) | inactive: 0.021 |

| Target | log2 fold change |
| --- | --- |
| EVL isoform 2 (UniProt Q9UI08) | inactive: -0.01 |
| FAM160B1 (UniProt Q5W0V3) | inactive: 0.008 |
| FAM78A (UniProt Q5JUQ0) | inactive: 0.048 |
| FAM120B (UniProt Q96EK7) | inactive: -0.004 |
| FAM117A (UniProt Q9C073) | inactive: -0.026 |
| FAM160A2 isoform 2 (UniProt Q8N612) | inactive: 0.151 |
| ETNK1 (UniProt Q9HBU6) | inactive: 0.031 |
| ESYT1 isoform 2 (UniProt Q9BSJ8) | inactive: -0.015 |
| ESPL1 (UniProt Q14674) | inactive: 0.251 |
| FADD (UniProt Q13158) | inactive: -0.05 |
| FAM222B (UniProt Q8WU58) | inactive: -0.059 |
| FAM118B (UniProt Q9BPY3) | inactive: -0.01 |
| FAF2 (UniProt Q96CS3) | inactive: 0.03 |
| FAHD2B (UniProt Q6P2I3) | inactive: -0.02 |
| FAM3A (UniProt P98173) | inactive: -0.011 |
| FAM126B (UniProt Q8IXS8) | inactive: 0.121 |
| FAM136A (UniProt Q96C01) | inactive: -0.029 |

Individual results from the list.
Value for FAM160B1 (UniProt Q5W0V3) under log2 fold change: inactive: 0.008
Value for FAM78A (UniProt Q5JUQ0) under log2 fold change: inactive: 0.048
